These are yes or no findings as the source states them, for the method shown. Binding seen in cells or lysates may run through a third protein. Some entries that bind do so weakly or less than the wild type. For some assays here: Where a sequence is shown, tags or fusion partners need not be part of it.
What was measured:
[1] = molecular target: Flag-tagged IMP α7 (human) (UniProt O60684); experiment: co-IP
[2] = molecular target: Myc-tagged MAVS (human) (UniProt Q7Z434); experiment: co-IP; HEK293T co-transfected with the indicated plasmids, lysed 36 h p.t. in IP lysis buffer (Pierce), primary antibody then Protein G-Agarose at 4 °C, western blot; in some panels a third protein (BinCARD1 or TRAF3) was coexpressed

By UniProt entry, the sequences of proteins in these tests, tags left out.
UniProt Q7Z434: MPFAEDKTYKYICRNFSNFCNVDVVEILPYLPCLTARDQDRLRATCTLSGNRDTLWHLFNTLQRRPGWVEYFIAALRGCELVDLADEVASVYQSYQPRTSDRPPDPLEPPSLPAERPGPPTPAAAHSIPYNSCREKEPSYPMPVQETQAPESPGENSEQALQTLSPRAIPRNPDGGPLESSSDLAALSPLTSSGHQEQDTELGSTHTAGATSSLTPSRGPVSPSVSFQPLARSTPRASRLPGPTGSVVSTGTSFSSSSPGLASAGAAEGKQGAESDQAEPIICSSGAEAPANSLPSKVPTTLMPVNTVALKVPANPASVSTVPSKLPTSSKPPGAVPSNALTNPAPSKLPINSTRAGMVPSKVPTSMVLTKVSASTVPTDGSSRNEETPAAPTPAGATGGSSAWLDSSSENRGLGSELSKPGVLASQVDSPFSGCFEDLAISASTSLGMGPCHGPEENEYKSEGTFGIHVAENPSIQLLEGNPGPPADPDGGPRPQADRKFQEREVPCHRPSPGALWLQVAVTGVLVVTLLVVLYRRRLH
UniProt P15682: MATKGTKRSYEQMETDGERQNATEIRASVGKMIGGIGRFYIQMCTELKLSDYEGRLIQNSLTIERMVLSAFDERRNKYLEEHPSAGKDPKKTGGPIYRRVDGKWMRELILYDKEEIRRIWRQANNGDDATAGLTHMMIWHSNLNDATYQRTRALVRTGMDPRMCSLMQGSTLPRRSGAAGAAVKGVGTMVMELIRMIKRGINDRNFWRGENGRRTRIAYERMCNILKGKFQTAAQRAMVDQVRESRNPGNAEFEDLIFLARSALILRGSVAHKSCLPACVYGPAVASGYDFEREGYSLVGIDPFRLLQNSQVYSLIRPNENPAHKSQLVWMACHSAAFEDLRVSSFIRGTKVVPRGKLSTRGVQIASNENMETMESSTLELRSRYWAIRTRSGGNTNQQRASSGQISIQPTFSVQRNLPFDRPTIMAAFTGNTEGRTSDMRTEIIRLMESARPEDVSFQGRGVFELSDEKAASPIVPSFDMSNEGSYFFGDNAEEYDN

binding [2] | Molecule | binding [1]
– | WSNNP (from UniProt P15682 1-498) | binds
binds | Flag-tagged IKKε (protein, UniProt Q14164 1-716) MQSTANYLWHTDDLLGQGATASVYKARNKKSGELVAVKVFNTTSYLRPREVQVREFEVLRKLNHQNIVKLFAVEETGGSRQKVLVMEYCSSGSLLSVLESPENAFGLPEDEFLVVLRCVVAGMNHLRENGIVHRDIKPGNIMRLVGEEGQSIYKLTDFGAARELDDDEKFVSVYGTEEYLHPDMYERAVLRKPQQKAFGVTVDLWSIGVTLYHAATGSLPFIPFGGPRRNKEIMYRITTEKPAGAIAGAQRRENGPLEWSYTLPITCQLSLGLQSQLVPILANILEVEQAKCWGFDQFFAETSDILQRVVVHVFSLSQAVLHHIYIHAHNTIAIFQEAVHKQTSVAPRHQEYLFEGHLCVLEPSVSAQHIAHTTASSPLTLFSTAIPKGLAFRDPALDVPKFVPKVDLQADYNTAKGVLGAGYQALRLARALLDGQELMFRGLHWVMEVLQATCRRTLEVARTSLLYLSSSLGTERFSSVAGTPEIQELKAAAELRSRLRTLAEVLSRCSQNITETQESLSSLNRELVKSRDQVHEDRSIQQIQCCLDKMNFIYKQFKKSRMRPGLGYNEEQIHKLDKVNFSHLAKRLLQVFQEECVQKYQASLVTHGKRMRVVHETRNHLRLVGCSVAACNTEAQGVQESLSKLLEELSHQLLQDRAKGAQASPPPIAPYPSPTRKDLLLHMQELCEGMKLLASDLLDNNRIIERLNRVPAPPDV | –

Source: publication PMC9508095
